We go through five substances from patent US10550150B2 (CADILA HEALTHCARE LIMITED, priority 2015, dated 2020).

This data set can be described thus: general procedure: Fmoc solid-phase peptide synthesis; Fmoc-PAL-PEG-PS, Fmoc-Rink amide MBHA, 2-chloro-trityl chloride, HMP, trichloroacetimidate or p-nitrophenylcarbonate Wan; DIPCDI/HOBt or DIPCDI/HOAt (SPPS); DCC/HOBt (solution phase).
Setting [1] is: whole synthesis, analytical RP-HPLC.

As for “6,9-dibenzyl-15-(4-((tert-butoxycarbonyl)amino)butyl)-12-isobutyl-2,2-dimethyl-4,7,10,13-tetraoxo-3-oxa-5,8,11,14-tetraazahexadecan-16-oic acid”, the step yield (late stage modification step) turned out to be 97%. As for H2N-Phe-Phe-Leu-Lys-Hpp-CONH2, under setting [1], the “crude HPLC purity” value is 85% and the “final HPLC purity” value is recorded as 99.18%. In turn, “N-(6-amino-1-(3-benzyl-3,6-diazabicyclo[3.1.1]heptan-6-yl)-1-oxohexan-2-yl)-2-(2-(2-amino-3-phenylpropanamido)-3-phenylpropanamido)-4-methylpentanamide” gave a step yield (late stage modification step) of 84%.

In the case of “bis-Boc-N-(6-amino-1-(3-benzyl-3,6-diazabicyclo[3.1.1]heptan-6-yl)-1-oxohexan-2-yl)-2-(2-(2-amino-3-phenylpropanamido)-3-phenylpropanamido)-4-methylpentanamide”, for the setting “coupling step”, the step yield was found to be 89%.

“methyl 6,9-dibenzyl-15-(4-((tert-butoxycarbonyl)amino)butyl)-12-isobutyl-2,2-dimethyl-4,7,10,13-tetraoxo-3-oxa-5,8,11,14-tetraazahexadecan-16-oate” showed a step yield (coupling step) of 92%.
